Laboratory results as given in the supplement of paper PMC12823440, “Inhibitors supercharge kinase turnover through native proteolytic circuits” (Nature, 2025).
Where a name gives a salt, the structure may show the parent alone. The list shows a part of the results. The calls rarely recur for the same compound in another form.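 Kinases, fused to nanoluciferase, were expressed in K562 cells; luminescence was measured every 4 h from 2 to 18 h as percent of control (DMSO = 100%, positive control = 0%). A time point is decreased if signal falls significantly (2 sigma). Hits were called by the authors by a rule that is not shown; the count of time points alone does not decide it.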

Chains of the proteins cited; added tags and fusions are not shown. Lines headed by an entry give the natural chain unless they say otherwise; changes in a name come on top.
UniProt Q9Y616: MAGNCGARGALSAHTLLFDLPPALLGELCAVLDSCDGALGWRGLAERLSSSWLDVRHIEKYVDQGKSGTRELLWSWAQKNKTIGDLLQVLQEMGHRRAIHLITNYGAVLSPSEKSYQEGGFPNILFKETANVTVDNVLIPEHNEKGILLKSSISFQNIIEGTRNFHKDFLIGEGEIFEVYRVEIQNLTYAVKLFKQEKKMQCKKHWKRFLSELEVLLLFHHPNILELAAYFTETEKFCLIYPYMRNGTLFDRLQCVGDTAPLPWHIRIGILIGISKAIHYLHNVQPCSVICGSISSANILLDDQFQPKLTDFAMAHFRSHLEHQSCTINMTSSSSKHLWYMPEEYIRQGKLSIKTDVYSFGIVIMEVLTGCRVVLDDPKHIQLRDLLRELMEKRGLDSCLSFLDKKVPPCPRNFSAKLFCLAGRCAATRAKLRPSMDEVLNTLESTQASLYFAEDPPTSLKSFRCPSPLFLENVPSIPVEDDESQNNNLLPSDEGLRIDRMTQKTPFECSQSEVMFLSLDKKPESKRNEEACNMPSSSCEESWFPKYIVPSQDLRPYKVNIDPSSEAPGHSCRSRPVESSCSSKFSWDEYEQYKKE
UniProt P06239: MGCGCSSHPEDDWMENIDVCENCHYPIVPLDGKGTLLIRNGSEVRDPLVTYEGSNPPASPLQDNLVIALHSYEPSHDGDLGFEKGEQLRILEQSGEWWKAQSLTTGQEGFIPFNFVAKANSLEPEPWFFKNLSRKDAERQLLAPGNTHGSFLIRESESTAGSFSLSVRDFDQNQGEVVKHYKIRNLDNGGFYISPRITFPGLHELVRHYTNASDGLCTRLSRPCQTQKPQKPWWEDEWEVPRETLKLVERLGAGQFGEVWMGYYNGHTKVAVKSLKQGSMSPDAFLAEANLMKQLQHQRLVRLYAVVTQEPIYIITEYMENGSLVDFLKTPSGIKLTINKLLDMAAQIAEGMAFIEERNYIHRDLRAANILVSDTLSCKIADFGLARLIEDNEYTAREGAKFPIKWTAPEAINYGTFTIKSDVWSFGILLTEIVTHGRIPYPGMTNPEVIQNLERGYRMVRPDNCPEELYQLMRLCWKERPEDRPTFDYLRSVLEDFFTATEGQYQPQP
UniProt P07948: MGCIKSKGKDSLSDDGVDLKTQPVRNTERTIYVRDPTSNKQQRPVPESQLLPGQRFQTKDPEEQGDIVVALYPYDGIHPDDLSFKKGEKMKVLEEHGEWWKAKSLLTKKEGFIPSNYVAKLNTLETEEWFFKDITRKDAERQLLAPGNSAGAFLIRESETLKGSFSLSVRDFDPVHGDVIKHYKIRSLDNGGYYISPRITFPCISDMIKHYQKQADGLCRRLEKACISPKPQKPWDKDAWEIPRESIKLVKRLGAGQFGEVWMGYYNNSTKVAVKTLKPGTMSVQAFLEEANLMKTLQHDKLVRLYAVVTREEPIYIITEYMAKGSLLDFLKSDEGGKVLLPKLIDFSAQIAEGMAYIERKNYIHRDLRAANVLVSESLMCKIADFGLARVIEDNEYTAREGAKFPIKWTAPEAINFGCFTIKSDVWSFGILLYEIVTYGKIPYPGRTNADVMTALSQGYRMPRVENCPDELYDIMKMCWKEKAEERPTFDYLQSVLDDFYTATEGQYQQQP
UniProt Q12851: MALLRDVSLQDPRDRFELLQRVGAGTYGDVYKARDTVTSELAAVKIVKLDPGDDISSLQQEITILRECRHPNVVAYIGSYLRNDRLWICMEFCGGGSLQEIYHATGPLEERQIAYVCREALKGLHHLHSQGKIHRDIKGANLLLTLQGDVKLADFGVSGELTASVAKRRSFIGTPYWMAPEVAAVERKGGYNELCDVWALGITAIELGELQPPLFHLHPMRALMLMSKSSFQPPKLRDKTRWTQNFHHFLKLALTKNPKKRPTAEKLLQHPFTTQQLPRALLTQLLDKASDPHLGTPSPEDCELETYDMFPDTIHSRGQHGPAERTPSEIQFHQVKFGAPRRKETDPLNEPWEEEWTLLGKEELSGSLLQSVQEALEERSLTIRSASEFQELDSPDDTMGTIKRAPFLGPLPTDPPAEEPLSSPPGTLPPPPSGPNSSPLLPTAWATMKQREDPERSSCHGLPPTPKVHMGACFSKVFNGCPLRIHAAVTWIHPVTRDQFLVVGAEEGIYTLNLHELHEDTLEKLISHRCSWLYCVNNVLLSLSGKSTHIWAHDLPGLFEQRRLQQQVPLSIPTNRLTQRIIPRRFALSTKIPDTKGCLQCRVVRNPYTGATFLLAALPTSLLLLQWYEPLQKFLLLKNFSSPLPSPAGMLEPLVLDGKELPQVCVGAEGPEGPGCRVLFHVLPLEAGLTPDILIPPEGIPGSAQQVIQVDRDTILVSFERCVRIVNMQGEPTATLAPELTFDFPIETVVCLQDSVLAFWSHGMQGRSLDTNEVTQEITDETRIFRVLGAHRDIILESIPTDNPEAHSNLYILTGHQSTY
UniProt P28482, whole entry: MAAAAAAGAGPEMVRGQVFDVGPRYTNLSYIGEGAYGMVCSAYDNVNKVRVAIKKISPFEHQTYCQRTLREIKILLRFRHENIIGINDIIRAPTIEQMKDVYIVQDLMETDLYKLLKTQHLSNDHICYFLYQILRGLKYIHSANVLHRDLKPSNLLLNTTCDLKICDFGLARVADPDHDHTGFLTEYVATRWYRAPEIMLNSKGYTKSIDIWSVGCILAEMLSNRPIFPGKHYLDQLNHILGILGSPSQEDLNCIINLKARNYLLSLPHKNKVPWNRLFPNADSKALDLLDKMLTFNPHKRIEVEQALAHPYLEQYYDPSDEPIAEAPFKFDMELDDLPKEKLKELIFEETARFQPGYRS
UniProt P31152, whole entry: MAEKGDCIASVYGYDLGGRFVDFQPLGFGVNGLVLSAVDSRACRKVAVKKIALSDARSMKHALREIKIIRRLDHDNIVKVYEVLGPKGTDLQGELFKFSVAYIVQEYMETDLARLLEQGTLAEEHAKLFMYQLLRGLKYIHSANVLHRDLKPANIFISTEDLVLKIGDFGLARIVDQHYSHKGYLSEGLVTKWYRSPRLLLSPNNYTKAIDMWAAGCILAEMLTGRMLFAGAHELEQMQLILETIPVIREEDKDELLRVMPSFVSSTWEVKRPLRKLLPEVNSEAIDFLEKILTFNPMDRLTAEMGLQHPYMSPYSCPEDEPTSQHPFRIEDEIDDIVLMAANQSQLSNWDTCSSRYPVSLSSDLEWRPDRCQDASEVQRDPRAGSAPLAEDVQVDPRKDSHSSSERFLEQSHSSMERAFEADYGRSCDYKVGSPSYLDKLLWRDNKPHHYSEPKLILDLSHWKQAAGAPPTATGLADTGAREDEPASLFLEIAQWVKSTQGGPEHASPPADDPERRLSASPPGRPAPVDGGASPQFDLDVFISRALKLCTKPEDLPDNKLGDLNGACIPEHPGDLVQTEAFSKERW
UniProt P49137, whole entry, looked up: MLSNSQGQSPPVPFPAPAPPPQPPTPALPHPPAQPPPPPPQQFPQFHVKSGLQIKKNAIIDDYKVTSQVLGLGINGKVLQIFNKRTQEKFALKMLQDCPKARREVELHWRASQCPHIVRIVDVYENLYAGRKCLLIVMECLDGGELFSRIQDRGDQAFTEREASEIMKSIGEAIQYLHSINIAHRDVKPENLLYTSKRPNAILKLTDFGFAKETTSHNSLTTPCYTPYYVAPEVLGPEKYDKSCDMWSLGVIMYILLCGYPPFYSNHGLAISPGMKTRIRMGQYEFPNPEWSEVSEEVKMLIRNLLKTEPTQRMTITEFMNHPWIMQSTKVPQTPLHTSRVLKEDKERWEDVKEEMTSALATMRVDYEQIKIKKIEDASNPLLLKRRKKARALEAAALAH
UniProt Q16620, whole entry, looked up: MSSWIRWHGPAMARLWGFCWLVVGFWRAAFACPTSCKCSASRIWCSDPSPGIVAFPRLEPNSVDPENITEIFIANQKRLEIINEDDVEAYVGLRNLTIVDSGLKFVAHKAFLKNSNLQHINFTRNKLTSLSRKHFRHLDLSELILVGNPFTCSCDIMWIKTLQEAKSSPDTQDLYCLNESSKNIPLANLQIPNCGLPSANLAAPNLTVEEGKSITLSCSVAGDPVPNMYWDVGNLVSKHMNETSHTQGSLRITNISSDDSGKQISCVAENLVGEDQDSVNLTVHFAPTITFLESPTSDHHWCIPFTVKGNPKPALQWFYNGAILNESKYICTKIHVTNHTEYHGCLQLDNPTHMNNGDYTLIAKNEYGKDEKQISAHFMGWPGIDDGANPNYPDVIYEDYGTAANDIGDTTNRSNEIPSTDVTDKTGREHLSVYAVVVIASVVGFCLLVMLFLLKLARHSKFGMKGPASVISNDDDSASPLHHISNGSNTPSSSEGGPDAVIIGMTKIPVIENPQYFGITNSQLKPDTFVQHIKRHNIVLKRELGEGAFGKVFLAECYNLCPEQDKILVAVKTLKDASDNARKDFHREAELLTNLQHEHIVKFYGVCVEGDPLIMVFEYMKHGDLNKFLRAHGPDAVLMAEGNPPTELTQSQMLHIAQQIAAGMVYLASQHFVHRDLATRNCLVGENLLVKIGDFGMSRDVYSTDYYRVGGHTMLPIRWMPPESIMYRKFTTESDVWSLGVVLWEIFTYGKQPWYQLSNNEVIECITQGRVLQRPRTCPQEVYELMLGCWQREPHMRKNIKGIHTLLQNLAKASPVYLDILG
UniProt Q16288, whole entry, looked up: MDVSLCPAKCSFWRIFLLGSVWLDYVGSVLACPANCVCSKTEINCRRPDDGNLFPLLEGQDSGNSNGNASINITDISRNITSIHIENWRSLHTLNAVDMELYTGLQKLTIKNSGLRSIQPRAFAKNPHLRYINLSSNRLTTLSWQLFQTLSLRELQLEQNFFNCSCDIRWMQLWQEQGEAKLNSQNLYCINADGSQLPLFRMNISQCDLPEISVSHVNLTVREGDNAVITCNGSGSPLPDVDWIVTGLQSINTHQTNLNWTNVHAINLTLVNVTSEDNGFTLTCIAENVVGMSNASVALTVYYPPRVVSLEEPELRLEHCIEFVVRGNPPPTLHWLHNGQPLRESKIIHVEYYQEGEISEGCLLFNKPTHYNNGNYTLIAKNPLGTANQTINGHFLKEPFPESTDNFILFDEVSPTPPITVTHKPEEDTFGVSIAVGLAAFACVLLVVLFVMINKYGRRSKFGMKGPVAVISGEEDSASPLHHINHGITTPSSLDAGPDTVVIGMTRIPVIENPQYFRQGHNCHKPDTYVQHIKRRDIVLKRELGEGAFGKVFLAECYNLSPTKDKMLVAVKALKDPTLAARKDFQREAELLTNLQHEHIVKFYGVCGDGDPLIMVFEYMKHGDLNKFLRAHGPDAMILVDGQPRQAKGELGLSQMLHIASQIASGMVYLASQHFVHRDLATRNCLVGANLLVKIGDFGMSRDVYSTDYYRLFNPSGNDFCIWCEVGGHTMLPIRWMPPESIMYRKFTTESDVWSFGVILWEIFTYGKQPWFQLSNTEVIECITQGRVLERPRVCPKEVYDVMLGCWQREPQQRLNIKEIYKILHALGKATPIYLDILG
UniProt O96013: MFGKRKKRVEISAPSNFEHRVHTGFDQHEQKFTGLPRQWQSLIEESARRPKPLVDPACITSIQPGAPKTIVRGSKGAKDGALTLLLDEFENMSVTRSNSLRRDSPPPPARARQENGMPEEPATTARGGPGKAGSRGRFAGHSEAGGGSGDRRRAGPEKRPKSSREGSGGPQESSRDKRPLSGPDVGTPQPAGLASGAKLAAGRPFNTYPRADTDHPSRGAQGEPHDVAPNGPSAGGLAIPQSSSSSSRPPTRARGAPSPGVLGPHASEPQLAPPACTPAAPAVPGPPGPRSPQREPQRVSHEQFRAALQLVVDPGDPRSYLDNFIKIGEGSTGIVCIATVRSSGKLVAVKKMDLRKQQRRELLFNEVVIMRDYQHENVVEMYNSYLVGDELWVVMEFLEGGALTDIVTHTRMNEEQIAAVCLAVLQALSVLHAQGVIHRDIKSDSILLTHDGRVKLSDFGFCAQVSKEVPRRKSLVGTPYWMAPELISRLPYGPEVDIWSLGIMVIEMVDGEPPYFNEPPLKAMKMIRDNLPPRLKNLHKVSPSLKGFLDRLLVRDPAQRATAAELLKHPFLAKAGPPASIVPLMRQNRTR
UniProt Q15118, whole entry, looked up: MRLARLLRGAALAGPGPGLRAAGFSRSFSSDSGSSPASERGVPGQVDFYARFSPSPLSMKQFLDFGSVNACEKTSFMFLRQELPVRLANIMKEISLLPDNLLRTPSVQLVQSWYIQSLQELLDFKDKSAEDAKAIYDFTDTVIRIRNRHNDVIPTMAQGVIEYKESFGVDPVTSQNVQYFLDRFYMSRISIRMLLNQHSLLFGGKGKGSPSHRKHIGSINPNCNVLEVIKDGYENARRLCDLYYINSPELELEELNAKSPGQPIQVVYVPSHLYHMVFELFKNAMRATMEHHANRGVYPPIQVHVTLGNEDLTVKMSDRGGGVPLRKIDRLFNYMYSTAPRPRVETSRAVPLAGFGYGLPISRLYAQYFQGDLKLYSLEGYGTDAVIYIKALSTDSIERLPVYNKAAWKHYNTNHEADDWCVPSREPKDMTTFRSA

How the values were obtained:
Experiment in all cases: kinase-Nluc reporter destabilization hit call (1 = scored as downregulated) (binary); higher = compound decreases kinase abundance
Details in all cases: K562; 2-18 h
IRAK3 = IRAK3 (UniProt Q9Y616)
JAK1 = JAK1 (UniProt P23458)
LCK = LCK (UniProt P06239)
LIMK1 = LIMK1 (UniProt P53667)
LIMK2 = LIMK2 (UniProt P53671)
LMTK2 = LMTK2 (UniProt Q8IWU2)
LYN = LYN (UniProt P07948)
MAP2K1 = MAP2K1 (UniProt Q02750)
MAP2K2 = MAP2K2 (UniProt P36507)
MAP4K2 = MAP4K2 (UniProt Q12851)
MAPK1 = MAPK1 (UniProt P28482)
MAPK4 = MAPK4 (UniProt P31152)
MAPKAPK2 = MAPKAPK2 (UniProt P49137)
MKNK1 = MKNK1 (UniProt Q9BUB5)
NTRK2 = NTRK2 (UniProt Q16620)
NTRK3 = NTRK3 (UniProt Q16288)
PAK4 = PAK4 (UniProt O96013)
PBK = PBK (UniProt Q96KB5)
PDGFRB = PDGFRB (UniProt P09619)
PDK1 = PDK1 (UniProt Q15118)

Measured: kinase-Nluc reporter destabilization hit call

C=CC(=O)Nc1cccc(Nc2nc(Nc3ccc(N4CCN(C(C)=O)CC4)cc3OC)ncc2C(F)(F)F)c1 [Rociletinib hydrobromide] (10 µM)
inactive: IRAK3 = 0 | JAK1 = 0 | LCK 0 | LIMK1 = 0 | LIMK2 = 0 | LMTK2 = 0 | LYN 0 | MAP2K1 = 0 | MAP2K2 = 0 | MAP4K2 = 0 | MAPK1 = 0 | MAPK4 = 0 | MAPKAPK2 = 0 | MKNK1 = 0 | NTRK2 = 0 | NTRK3 = 0 | PAK4 = 0 | PBK 0 | PDGFRB 0 | PDK1 = 0

NC(=O)c1ccc2[nH]ccc2c1 (10 µM)
inactive: IRAK3 = 0 | JAK1 = 0 | LCK 0 | LIMK1 = 0 | LIMK2 = 0 | LMTK2 = 0 | LYN 0 | MAP2K1 = 0 | MAP2K2 = 0 | MAP4K2 = 0 | MAPK1 = 0 | MAPK4 = 0 | MAPKAPK2 = 0 | MKNK1 = 0 | NTRK2 = 0 | NTRK3 = 0 | PAK4 = 0 | PBK 0 | PDGFRB 0 | PDK1 = 0

CC#CC(=O)Nc1ccc2ncnc(Nc3cccc(Br)c3)c2c1 (10 µM)
inactive: IRAK3 = 0 | JAK1 = 0 | LCK 0 | LIMK1 = 0 | LIMK2 = 0 | LMTK2 = 0 | LYN 0 | MAP2K1 = 0 | MAP2K2 = 0 | MAP4K2 = 0 | MAPK1 = 0 | MAPK4 = 0 | MAPKAPK2 = 0 | MKNK1 = 0 | NTRK2 = 0 | NTRK3 = 0 | PAK4 = 0 | PBK 0 | PDGFRB 0 | PDK1 = 0

Cc1c(NC(=O)c2cccn(-c3ccc(F)cc3)c2=O)ccc(Oc2ccnc(NC(=O)C3CC3)c2)c1C (2 µM)
inactive: IRAK3 = 0 | JAK1 = 0 | LCK 0 | LIMK1 = 0 | LIMK2 = 0 | LMTK2 = 0 | LYN 0 | MAP2K1 = 0 | MAP2K2 = 0 | MAP4K2 = 0 | MAPK1 = 0 | MAPK4 = 0 | MAPKAPK2 = 0 | MKNK1 = 0 | NTRK2 = 0 | NTRK3 = 0 | PAK4 = 0 | PBK 0 | PDGFRB 0 | PDK1 = 0

CNC(=O)c1c(F)cccc1Nc1nc(Nc2cc3c(cc2OC)CCN3C(=O)CN(C)C)nc2[nH]ccc12 (10 µM)
inactive: IRAK3 = 0 | JAK1 = 0 | LCK 0 | LIMK1 = 0 | LIMK2 = 0 | LMTK2 = 0 | LYN 0 | MAP2K1 = 0 | MAP2K2 = 0 | MAP4K2 = 0 | MAPK1 = 0 | MAPK4 = 0 | MAPKAPK2 = 0 | MKNK1 = 0 | NTRK2 = 0 | NTRK3 = 0 | PAK4 = 0 | PBK 0 | PDGFRB 0 | PDK1 = 0

Taken from the results shown, two compounds:
C=CC(=O)Nc1cccc(Nc2nc(Nc3ccc(N4CCN(C(C)=O)CC4)cc3OC)ncc2C(F)(F)F)c1 [Rociletinib hydrobromide] (10 µM)
inactive: IRAK3 = 0 | JAK1 = 0 | LCK 0 | LIMK1 = 0 | LIMK2 = 0 | LMTK2 = 0 | LYN 0 | MAP2K1 = 0 | MAP2K2 = 0 | MAP4K2 = 0 | MAPK1 = 0 | MAPK4 = 0 | MAPKAPK2 = 0 | MKNK1 = 0 | NTRK2 = 0 | NTRK3 = 0 | PAK4 = 0 | PBK 0 | PDGFRB 0 | PDK1 = 0

NC(=O)c1ccc2[nH]ccc2c1 (10 µM)
inactive: IRAK3 = 0 | JAK1 = 0 | LCK 0 | LIMK1 = 0 | LIMK2 = 0 | LMTK2 = 0 | LYN 0 | MAP2K1 = 0 | MAP2K2 = 0 | MAP4K2 = 0 | MAPK1 = 0 | MAPK4 = 0 | MAPKAPK2 = 0 | MKNK1 = 0 | NTRK2 = 0 | NTRK3 = 0 | PAK4 = 0 | PBK 0 | PDGFRB 0 | PDK1 = 0

Continuation.

Oc1cc2c(cc1O)C(Cc1cccc3ccccc13)NCC2 (stereo not given) (10 µM)
inactive: IRAK3 = 0 | JAK1 = 0 | LCK 0 | LIMK1 = 0 | LIMK2 = 0 | LMTK2 = 0 | LYN 0 | MAP2K1 = 0 | MAP2K2 = 0 | MAP4K2 = 0 | MAPK1 = 0 | MAPK4 = 0 | MAPKAPK2 = 0 | MKNK1 = 0 | NTRK2 = 0 | NTRK3 = 0 | PAK4 = 0 | PBK 0 | PDGFRB 0 | PDK1 = 0

O=C1N[C@@H](Cc2c[nH]c3ccccc23)C(=O)N2CCC[C@@H]12 [Brevianamide F] (10 µM)
inactive: IRAK3 = 0 | JAK1 = 0 | LCK 0 | LIMK1 = 0 | LIMK2 = 0 | LMTK2 = 0 | LYN 0 | MAP2K1 = 0 | MAP2K2 = 0 | MAP4K2 = 0 | MAPK1 = 0 | MAPK4 = 0 | MAPKAPK2 = 0 | MKNK1 = 0 | NTRK2 = 0 | NTRK3 = 0 | PAK4 = 0 | PBK 0 | PDGFRB 0 | PDK1 = 0

CS(=O)(=O)Nc1cc(-c2ccc3ncnc(Nc4ccc(F)c(Cl)c4)c3c2)cnc1Cl (2.5 µM)
inactive: IRAK3 = 0 | JAK1 = 0 | LCK 0 | LIMK1 = 0 | LIMK2 = 0 | LMTK2 = 0 | LYN 0 | MAP2K1 = 0 | MAP2K2 = 0 | MAP4K2 = 0 | MAPK1 = 0 | MAPK4 = 0 | MAPKAPK2 = 0 | MKNK1 = 0 | NTRK2 = 0 | NTRK3 = 0 | PAK4 = 0 | PBK 0 | PDGFRB 0 | PDK1 = 0

CN1CCN(c2cnc3c(C4CCN(C(=O)c5ccc(OC(F)(F)F)cc5N)CC4)ncnc3c2)CC1 (10 µM)
inactive: IRAK3 = 0 | JAK1 = 0 | LCK 0 | LIMK1 = 0 | LIMK2 = 0 | LMTK2 = 0 | LYN 0 | MAP2K1 = 0 | MAP2K2 = 0 | MAP4K2 = 0 | MAPK1 = 0 | MAPK4 = 0 | MAPKAPK2 = 0 | MKNK1 = 0 | NTRK2 = 0 | NTRK3 = 0 | PAK4 = 0 | PBK 0 | PDGFRB 0 | PDK1 = 0

CCCS(=O)(=O)Nc1ccc(F)c(C(=O)c2c[nH]c3ncc(-c4ccc(Cl)cc4)cc23)c1F [Vemurafenib] (10 µM)
inactive: IRAK3 = 0 | JAK1 = 0 | LCK 0 | LIMK1 = 0 | LIMK2 = 0 | LMTK2 = 0 | LYN 0 | MAP2K1 = 0 | MAP2K2 = 0 | MAP4K2 = 0 | MAPK1 = 0 | MAPK4 = 0 | MAPKAPK2 = 0 | MKNK1 = 0 | NTRK2 = 0 | NTRK3 = 0 | PAK4 = 0 | PBK 0 | PDGFRB 0 | PDK1 = 0

O=C(CSC1=NCCN1)NC1CCCCCC1 [ICCB-19 (hydrochloride)] (2.5 µM)
inactive: IRAK3 = 0 | JAK1 = 0 | LCK 0 | LIMK1 = 0 | LIMK2 = 0 | LMTK2 = 0 | LYN 0 | MAP2K1 = 0 | MAP2K2 = 0 | MAP4K2 = 0 | MAPK1 = 0 | MAPK4 = 0 | MAPKAPK2 = 0 | MKNK1 = 0 | NTRK2 = 0 | NTRK3 = 0 | PAK4 = 0 | PBK 0 | PDGFRB 0 | PDK1 = 0

CC#CC(=O)N1CC[C@@H](n2c(=O)n(-c3ccc(Oc4ccccc4)cc3)c3c(N)ncnc32)C1 [Tirabrutinib] (10 µM)
inactive: IRAK3 = 0 | JAK1 = 0 | LCK 0 | LIMK1 = 0 | LIMK2 = 0 | LMTK2 = 0 | LYN 0 | MAP2K1 = 0 | MAP2K2 = 0 | MAP4K2 = 0 | MAPK1 = 0 | MAPK4 = 0 | MAPKAPK2 = 0 | MKNK1 = 0 | NTRK2 = 0 | NTRK3 = 0 | PAK4 = 0 | PBK 0 | PDGFRB 0 | PDK1 = 0

COc1cc2c(cc1OC)CN(S(=O)(=O)c1ccc(OC)c(N3CCN(C(=O)c4ccc(F)cc4C(F)(F)F)CC3)c1)CC2 (10 µM)
inactive: IRAK3 = 0 | JAK1 = 0 | LCK 0 | LIMK1 = 0 | LIMK2 = 0 | LMTK2 = 0 | LYN 0 | MAP2K1 = 0 | MAP2K2 = 0 | MAP4K2 = 0 | MAPK1 = 0 | MAPK4 = 0 | MAPKAPK2 = 0 | MKNK1 = 0 | NTRK2 = 0 | NTRK3 = 0 | PAK4 = 0 | PBK 0 | PDGFRB 0 | PDK1 = 0

C=C(CC[C@@H](C(=O)O)[C@H]1[C@H](O)C[C@@]2(C)C3=C(CC[C@]12C)[C@@]1(C)CC[C@H](OC(C)=O)C(C)(C)[C@@H]1CC3)C(C)C [Pachymic acid] (10 µM)
inactive: IRAK3 = 0 | JAK1 = 0 | LCK 0 | LIMK1 = 0 | LIMK2 = 0 | LMTK2 = 0 | LYN 0 | MAP2K1 = 0 | MAP2K2 = 0 | MAP4K2 = 0 | MAPK1 = 0 | MAPK4 = 0 | MAPKAPK2 = 0 | MKNK1 = 0 | NTRK2 = 0 | NTRK3 = 0 | PAK4 = 0 | PBK 0 | PDGFRB 0 | PDK1 = 0

Nc1ccc(-c2cnc(N)c(-c3ccc(Cl)cc3)c2)cn1 (10 µM)
inactive: IRAK3 = 0 | JAK1 = 0 | LCK 0 | LIMK1 = 0 | LIMK2 = 0 | LMTK2 = 0 | LYN 0 | MAP2K1 = 0 | MAP2K2 = 0 | MAP4K2 = 0 | MAPK1 = 0 | MAPK4 = 0 | MAPKAPK2 = 0 | MKNK1 = 0 | NTRK2 = 0 | NTRK3 = 0 | PAK4 = 0 | PBK 0 | PDGFRB 0 | PDK1 = 0

NC(=O)c1nnc(N[C@@H]2CCCC[C@@H]2N)nc1Nc1cccc2cc[nH]c12 (10 µM)
inactive: IRAK3 = 0 | JAK1 = 0 | LCK 0 | LIMK1 = 0 | LIMK2 = 0 | LMTK2 = 0 | LYN 0 | MAP2K1 = 0 | MAP2K2 = 0 | MAP4K2 = 0 | MAPK1 = 0 | MAPK4 = 0 | MAPKAPK2 = 0 | MKNK1 = 0 | NTRK2 = 0 | NTRK3 = 0 | PAK4 = 0 | PBK 0 | PDGFRB 0 | PDK1 = 0

O=Nc1c(-c2c(O)[nH]c3ccc(I)cc23)[nH]c2ccccc12 [5-Iodo-indirubin-3'-monoxime] (10 µM)
inactive: IRAK3 = 0 | JAK1 = 0 | LCK 0 | LIMK1 = 0 | LIMK2 = 0 | LMTK2 = 0 | LYN 0 | MAP2K1 = 0 | MAP2K2 = 0 | MAP4K2 = 0 | MAPK1 = 0 | MAPK4 = 0 | MAPKAPK2 = 0 | MKNK1 = 0 | NTRK2 = 0 | NTRK3 = 0 | PAK4 = 0 | PBK 0 | PDGFRB 0 | PDK1 = 0

Cc1cc(O)c2c(c1)C(=O)c1cc(O)cc(O)c1C2=O [Emodin] (10 µM)
inactive: IRAK3 = 0 | JAK1 = 0 | LCK 0 | LIMK1 = 0 | LIMK2 = 0 | LMTK2 = 0 | LYN 0 | MAP2K1 = 0 | MAP2K2 = 0 | MAP4K2 = 0 | MAPK1 = 0 | MAPK4 = 0 | MAPKAPK2 = 0 | MKNK1 = 0 | NTRK2 = 0 | NTRK3 = 0 | PAK4 = 0 | PBK 0 | PDGFRB 0 | PDK1 = 0
